Cell number after 72 h of treatment

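The test systems are human melanoma cell lines, treated with two drugs together for 72 h and then stained and imaged. Each value is the count of nuclei relative to DMSO-treated wells, in %, so that 100 equals the control. Every drug was used at one fixed concentration, the higher of two screened. The file gives one value for each pair and line, without errors, so small differences may be noise.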
An unselected part of the screen is shown.

Every entry is a combination with GSK0660 at 5 µM: COC(=O)c1sccc1S(=O)(=O)Nc1ccc(Nc2ccccc2)cc1OC

- Cc1cn(-c2cc(NC(=O)c3ccc(C)c(Nc4nccc(-c5cccnc5)n4)c3)cc(C(F)(F)F)c2)cn1 at 1 µM : COLO 800: 122; COLO 829: 133; C32: 106; WM451Lu: 97.4; COLO 792: 111; WM3619: 101
- Cn1c(Nc2ccc(C(F)(F)F)cc2)nc2cc(Oc3ccnc(-c4ncc(C(F)(F)F)[nH]4)c3)ccc21 at 0.4 µM : COLO 800: 63.4; COLO 829: 63.5; C32: 61.7; WM451Lu: 54.3; COLO 792: 27.9; WM3619: 31.4
- Cc1cc(Nc2cc(N3CCN(C)CC3)nc(Sc3ccc(NC(=O)C4CC4)cc3)n2)n[nH]1 at 0.03 µM : COLO 800: 42.2; COLO 829: 77.4; C32: 78.6; WM451Lu: 87.0; COLO 792: 78.0; WM3619: 70.2
- O=C(CCCCCCC(=O)Nc1ccccc1)NO at 0.4 µM : COLO 800: 79.7; COLO 829: 84.2; C32: 109; WM451Lu: 75.3; COLO 792: 78.2; WM3619: 70.4
- CS(=O)(=O)CCNCc1ccc(-c2ccc3ncnc(Nc4ccc(OCc5cccc(F)c5)c(Cl)c4)c3c2)o1 at 4 µM : COLO 800: 80.0; COLO 829: 93.0; C32: 80.8; WM451Lu: 92.5; COLO 792: 73.1; WM3619: 74.2
- NC1(c2ccc(-c3nc4ccn5c(=O)[nH]nc5c4cc3-c3ccccc3)cc2)CCC1 at 2 µM : COLO 800: 61.0; COLO 829: 60.7; C32: 83.8; WM451Lu: 84.4; COLO 792: 48.4; WM3619: 98.8
- C[C@]1(c2nc3c(C(N)=O)cccc3[nH]2)CCCN1 at 7 µM : COLO 800: 122; COLO 829: 77.6; C32: 98.1; WM451Lu: 112; COLO 792: 126; WM3619: 68.0
- CC(C)C[C@H](NC(=O)[C@H](Cc1ccccc1)NC(=O)c1cnccn1)B(O)O at 0.005 µM : COLO 800: 87.3; COLO 829: 5.8; C32: 16.8; WM451Lu: 27.9; COLO 792: 30.0; WM3619: 2.9
- COc1cc(Nc2ncc(F)c(Nc3ccc4c(n3)NC(=O)C(C)(C)O4)n2)cc(OC)c1OC at 2 µM : COLO 800: 50.8; COLO 829: 88.6; C32: 98.1; WM451Lu: 83.7; COLO 792: 49.0; WM3619: 81.4
- OCCn1cc(-c2cnc3nnn(Cc4ccc5ncccc5c4)c3n2)cn1 at 5 µM : COLO 800: 76.3; COLO 829: 93.7; C32: 90.3; WM451Lu: 103; COLO 792: 95.5; WM3619: 98.8
- NCC(=O)Nc1ccc(-n2nc(C(F)(F)F)cc2-c2ccc3c(ccc4ccccc43)c2)cc1 at 5 µM : COLO 800: 98.7; COLO 829: 52.0; C32: 83.6; WM451Lu: 91.0; COLO 792: 69.5; WM3619: 79.4
- NC(=O)c1ccc(N(C(N)=O)c2c(F)cccc2F)nc1-c1ccc(F)cc1F at 2 µM : COLO 800: 131; COLO 829: 111; C32: 113; WM451Lu: 84.9; COLO 792: 84.8; WM3619: 124
- C=CCn1c(=O)c2cnc(Nc3ccc(N4CCN(C)CC4)cc3)nc2n1-c1cccc(C(C)(C)O)n1 at 0.1 µM : COLO 800: 80.0; COLO 829: 67.5; C32: 123; WM451Lu: 94.7; COLO 792: 83.6; WM3619: 44.2
- Cc1nc(Nc2ncc(C(=O)Nc3c(C)cccc3Cl)s2)cc(N2CCN(CCO)CC2)n1 at 0.02 µM : COLO 800: 79.6; COLO 829: 66.5; C32: 77.7; WM451Lu: 75.6; COLO 792: 57.9; WM3619: 59.1
- C=C(c1ccc(C(=O)O)cc1)c1cc2c(cc1C)C(C)(C)CCC2(C)C at 10 µM : COLO 800: 149; COLO 829: 63.6; C32: 110; WM451Lu: 88.9; COLO 792: 80.1; WM3619: 76.5
- CS(=O)(=O)c1ccc(C(=O)Nc2ccc(Cl)c(-c3ccccn3)c2)c(Cl)c1 at 5 µM : COLO 800: 87.1; COLO 829: 102; C32: 104; WM451Lu: 101; COLO 792: 106; WM3619: 96.2
- CC1(C)NC(=O)N(c2ccc([N+](=O)[O-])c(C(F)(F)F)c2)C1=O at 5 µM : COLO 800: 113; COLO 829: 119; C32: 106; WM451Lu: 80.3; COLO 792: 102; WM3619: 94.6
- Clc1ccc(Nc2nnc(Cc3ccncc3)c3ccccc23)cc1 at 10 µM : COLO 800: 58.4; COLO 829: 72.2; C32: 74.8; WM451Lu: 90.6; COLO 792: 50.9; WM3619: 58.6
- O=C(O)[C@@H]1[O][Sb](=[O])([O][Sb]2(=[O])[O][C@H]([C@H](O)CO)[C@H](O)[C@H](C(=O)O)[O]2)[O][C@H]([C@H](O)CO)[C@@H]1O (stereo partly shown) at 10 µM : COLO 800: 102; COLO 829: 97.5; C32: 107; WM451Lu: 95.4; COLO 792: 107; WM3619: 83.9
- N#CC[C@H](C1CCCC1)n1cc(-c2ncnc3[nH]ccc23)cn1 at 5 µM : COLO 800: 118; COLO 829: 117; C32: 89.6; WM451Lu: 105; COLO 792: 90.0; WM3619: 101

The last 2 entries again:

{"partner": "O=C(O)[C@@H]1[O][Sb](=[O])([O][Sb]2(=[O])[O][C@H]([C@H](O)CO)[C@H](O)[C@H](C(=O)O)[O]2)[O][C@H]([C@H](O)CO)[C@@H]1O (stereo partly shown) at 10 µM", "COLO 800": 102, "COLO 829": 97.5, "C32": 107, "WM451Lu": 95.4, "COLO 792": 107, "WM3619": 83.9}
{"partner": "N#CC[C@H](C1CCCC1)n1cc(-c2ncnc3[nH]ccc23)cn1 at 5 µM", "COLO 800": 118, "COLO 829": 117, "C32": 89.6, "WM451Lu": 105, "COLO 792": 90.0, "WM3619": 101}

Values as published with doi:10.1371/journal.pone.0140310, rounded.